One assay has as its target HA-Sox4 (UniProt Q06831). Description: co-IP.
For the next assay, the target named is HA-Sox4ΔC (UniProt Q06831). In words: co-IP.

Sequences of proteins named here, by UniProt entry; tags and fusion partners are left off. A change or cut given only in a name is not applied to a line headed by its entry. Residues count along the entry.
UniProt Q06831, whole entry: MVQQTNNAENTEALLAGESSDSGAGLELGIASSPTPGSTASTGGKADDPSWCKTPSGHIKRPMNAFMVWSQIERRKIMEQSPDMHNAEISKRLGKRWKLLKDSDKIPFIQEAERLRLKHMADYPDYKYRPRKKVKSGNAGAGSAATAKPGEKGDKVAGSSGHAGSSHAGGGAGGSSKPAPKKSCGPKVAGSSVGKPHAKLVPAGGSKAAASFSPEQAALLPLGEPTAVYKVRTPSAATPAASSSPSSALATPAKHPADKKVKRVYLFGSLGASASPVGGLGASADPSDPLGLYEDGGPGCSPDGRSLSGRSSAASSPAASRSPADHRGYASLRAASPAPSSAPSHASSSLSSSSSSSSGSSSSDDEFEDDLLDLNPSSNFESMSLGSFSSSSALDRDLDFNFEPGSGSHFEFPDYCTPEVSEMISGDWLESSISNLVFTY
UniProt Q06831, 1-407, stated change not applied: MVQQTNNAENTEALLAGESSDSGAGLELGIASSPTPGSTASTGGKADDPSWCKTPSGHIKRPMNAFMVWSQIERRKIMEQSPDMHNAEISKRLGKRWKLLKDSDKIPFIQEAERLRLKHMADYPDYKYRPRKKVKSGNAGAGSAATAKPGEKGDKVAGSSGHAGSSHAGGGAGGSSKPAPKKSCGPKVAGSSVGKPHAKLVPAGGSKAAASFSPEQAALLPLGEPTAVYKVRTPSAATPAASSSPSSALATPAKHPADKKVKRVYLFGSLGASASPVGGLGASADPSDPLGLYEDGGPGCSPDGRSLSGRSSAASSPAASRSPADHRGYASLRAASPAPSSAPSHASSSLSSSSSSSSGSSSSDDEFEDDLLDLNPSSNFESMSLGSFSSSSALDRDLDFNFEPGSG
UniProt P54843, whole entry: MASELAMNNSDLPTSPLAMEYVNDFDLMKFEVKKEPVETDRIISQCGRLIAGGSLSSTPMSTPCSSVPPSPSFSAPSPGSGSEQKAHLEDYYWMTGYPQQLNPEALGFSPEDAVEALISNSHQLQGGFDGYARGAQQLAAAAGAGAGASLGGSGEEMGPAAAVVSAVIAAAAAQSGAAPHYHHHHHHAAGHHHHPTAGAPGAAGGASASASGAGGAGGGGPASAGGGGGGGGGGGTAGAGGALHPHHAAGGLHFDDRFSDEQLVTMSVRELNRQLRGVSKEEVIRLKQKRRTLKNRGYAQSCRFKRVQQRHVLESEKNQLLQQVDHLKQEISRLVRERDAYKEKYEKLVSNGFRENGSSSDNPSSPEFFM

No constants are given. Whether binding was seen depends on the method and setting. Binding seen in cells or lysates may run through a third protein. Some binding calls cover weakened binding; strength is not graded here.

As for Flag-c-Maf (from UniProt P54843 1-370), the binding entry with HA-Sox4 and with HA-Sox4ΔC was “binds” throughout.
